US20160060234A1, “CYSTEINE DERIVATIVE” (AJINOMOTO CO., INC., priority 2010, published 2016)
Some compounds share one wording; it may come from a single statement.

Assay: Odor test (sulfur odor, 6 panelists)
Settings: 70° C.; for odor evaluation at pH 4 (day 4), total points of 6 panelists / odor evaluation at pH 4 (day 6), total points of 6 panelists / odor evaluation at pH 4 (day 6), grade / odor evaluation at pH 4 (day 4), grade: 1 wt % aqueous solution pH 4, sealed; for odor evaluation at pH 4 (day 4), total points of 6 panelists / odor evaluation at pH 4 (day 6), total points of 6 panelists / odor evaluation at pH 7 (day 4), total points of 6 panelists / odor evaluation at pH 7 (day 6), total points of 6 panelists: 3 points = no sulfur odor, 0 = strong
Method: 1 wt % Aqueous solutions (pH 4 or 7) of the cysteine derivatives of Synthetic Examples 10, 33, and 37, CP obtained in Reference Example 1, and CP2Et obtained in Reference Example 2 were prepared, tightly sealed, and preserved in a thermostatic tank at 70° C. for 4 days or 6 days. Each sample was taken out from the thermostatic tank, immediately thereafter smelled for odor by 6 panelists, and evaluated by the following criteria.
3 points: no sulfur odor was detected at all 2 points: slight sulfur odor was detected 1 point: sulfur odor was detected 0 point: strong sulfur odor was detected
The results of the 6 panelists were totaled, and the total points were evaluated as ⊚: not less than 15 points, ◯: not less than 10 points and less than 15 points, Δ: not less than 5 points and less than 10 points, x: not less than 0 point and less than 5 points.

[1] = 1 wt % aqueous solution pH 7, sealed, 4 days
[2] = 1 wt % aqueous solution pH 7, sealed, 6 days

Compound | odor evaluation at pH 4 (day 4), total points of 6 panelists (4 days) [points] | odor evaluation at pH 4 (day 6), total points of 6 panelists (6 days) [points] | odor evaluation at pH 7 (day 4), total points of 6 panelists [1] [points] | odor evaluation at pH 7 (day 6), total points of 6 panelists [2] [points] | odor evaluation at pH 4 (day 6), grade (6 days) | odor evaluation at pH 4 (day 4), grade (4 days) | odor evaluation at pH 7 (day 4), grade [1] | odor evaluation at pH 7 (day 6), grade [2]
CCOC(=O)C1(C)NC(C(=O)O)CS1 (stereo not shown) [CP2Et, 2-methylthiazolidine-2,4-dicarboxylic acid 2-ethyl ester, reference compound] | 3 | 1 | 3 | 1 |  |  |  | 
CC1(C(=O)O)NC(C(=O)O)CS1 (stereo not shown) [CP, 2-methylthiazolidine-2,4-dicarboxylic acid, reference compound] | 6 | 7 |  |  | Δ (not less than 5 points and less than 10 points) |  |  | 
CCOC(=O)C1(C)SCC(C(=O)O)N1C(C)=O (stereo not shown) [Synthetic Example 10, N-acetyl-2-methylthiazolidine-2,4-dicarboxylic acid 2-ethyl ester] | 10 | 8 | 18 | 17 | Δ (not less than 5 points and less than 10 points) | ◯ (not less than 10 points and less than 15 points) |  | 
CCOC(=O)C1SCC(C(=O)O)N1C(C)=O (stereo not shown) [Synthetic Example 33, N-acetylthiazolidine-2,4-dicarboxylic acid 2-ethyl ester] | 16 | 15 | 18 | 17 |  |  |  | 
COC(=O)C1CSC(C(=O)OC)N1C(C)=O (stereo not shown) [Synthetic Example 37, N-acetylthiazolidine-2,4-dicarboxylic acid 2,4-dimethyl ester] | 10 | 9 | 12 | 9 | Δ (not less than 5 points and less than 10 points) | ◯ (not less than 10 points and less than 15 points) | ◯ (not less than 10 points and less than 15 points) | Δ (not less than 5 points and less than 10 points)
